In paper PMC10499821:
Results are given in words; binding and its absence hold for the method and conditions named. Some results given as binding are weak or reduced against the parent protein; the word gives no strength.

By UniProt entry, the sequences of proteins in these tests, tags left out. Where a name states a change or a piece, a line headed by the entry shows the natural chain unless it says otherwise.
UniProt Q99466: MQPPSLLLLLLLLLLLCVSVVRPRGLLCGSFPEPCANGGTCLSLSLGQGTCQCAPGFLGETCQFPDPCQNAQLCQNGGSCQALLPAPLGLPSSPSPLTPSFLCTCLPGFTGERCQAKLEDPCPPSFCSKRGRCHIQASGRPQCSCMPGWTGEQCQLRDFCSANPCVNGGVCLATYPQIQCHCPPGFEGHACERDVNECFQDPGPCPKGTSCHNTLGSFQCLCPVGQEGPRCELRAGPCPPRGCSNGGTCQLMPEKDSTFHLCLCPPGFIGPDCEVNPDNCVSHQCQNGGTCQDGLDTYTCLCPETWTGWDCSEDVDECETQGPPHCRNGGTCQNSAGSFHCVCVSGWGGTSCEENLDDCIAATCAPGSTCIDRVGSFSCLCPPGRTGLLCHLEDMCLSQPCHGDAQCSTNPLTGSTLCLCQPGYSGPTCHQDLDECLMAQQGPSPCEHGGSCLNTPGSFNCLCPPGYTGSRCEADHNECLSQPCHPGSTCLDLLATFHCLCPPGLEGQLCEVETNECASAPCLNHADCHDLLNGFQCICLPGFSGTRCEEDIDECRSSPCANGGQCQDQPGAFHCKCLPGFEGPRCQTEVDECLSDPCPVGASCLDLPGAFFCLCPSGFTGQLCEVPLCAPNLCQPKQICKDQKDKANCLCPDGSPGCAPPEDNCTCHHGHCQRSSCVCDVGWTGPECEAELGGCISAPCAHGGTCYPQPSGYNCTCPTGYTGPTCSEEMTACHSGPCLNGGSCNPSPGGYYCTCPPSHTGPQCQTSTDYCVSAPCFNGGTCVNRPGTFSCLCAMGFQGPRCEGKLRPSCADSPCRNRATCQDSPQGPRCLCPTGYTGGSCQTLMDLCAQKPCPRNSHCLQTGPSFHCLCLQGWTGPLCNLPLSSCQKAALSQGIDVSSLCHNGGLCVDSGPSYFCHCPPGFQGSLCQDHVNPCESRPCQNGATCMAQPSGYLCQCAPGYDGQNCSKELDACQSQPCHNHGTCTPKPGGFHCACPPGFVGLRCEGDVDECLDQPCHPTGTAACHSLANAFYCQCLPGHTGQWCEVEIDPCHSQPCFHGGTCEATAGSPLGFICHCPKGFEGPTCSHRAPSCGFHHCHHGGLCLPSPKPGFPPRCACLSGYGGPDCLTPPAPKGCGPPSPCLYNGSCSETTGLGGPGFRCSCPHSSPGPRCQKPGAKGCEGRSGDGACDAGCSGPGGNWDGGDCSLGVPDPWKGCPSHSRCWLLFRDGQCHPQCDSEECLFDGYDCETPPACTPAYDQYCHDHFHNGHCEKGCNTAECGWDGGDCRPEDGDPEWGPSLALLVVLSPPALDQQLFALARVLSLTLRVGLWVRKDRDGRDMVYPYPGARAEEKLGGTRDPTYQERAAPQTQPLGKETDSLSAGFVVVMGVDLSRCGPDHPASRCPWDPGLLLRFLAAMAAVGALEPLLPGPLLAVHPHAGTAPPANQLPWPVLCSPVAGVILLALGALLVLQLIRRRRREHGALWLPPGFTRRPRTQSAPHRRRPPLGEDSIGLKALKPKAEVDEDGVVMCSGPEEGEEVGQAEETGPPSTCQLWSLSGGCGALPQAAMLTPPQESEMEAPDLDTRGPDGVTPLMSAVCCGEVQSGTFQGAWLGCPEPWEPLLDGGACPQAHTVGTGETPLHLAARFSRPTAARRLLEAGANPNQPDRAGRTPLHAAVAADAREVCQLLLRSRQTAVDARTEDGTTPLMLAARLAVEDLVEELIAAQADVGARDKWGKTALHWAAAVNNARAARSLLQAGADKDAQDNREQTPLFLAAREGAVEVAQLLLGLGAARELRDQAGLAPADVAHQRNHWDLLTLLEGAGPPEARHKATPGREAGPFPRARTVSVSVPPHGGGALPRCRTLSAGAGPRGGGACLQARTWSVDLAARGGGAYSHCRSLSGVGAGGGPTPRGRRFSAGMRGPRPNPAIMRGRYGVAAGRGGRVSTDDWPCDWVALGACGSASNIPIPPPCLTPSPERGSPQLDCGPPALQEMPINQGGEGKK

Molecular target: Nsp9 (SARS-CoV-2) (UniProt P0DTD1)
Assay: NMR titration; both purified

NOTCH4_(1605–1620) (from UniProt Q99466 1605-1620) (peptide)
binding: binds
